From PubChem BioAssay AID624296 (National Center for Advancing Translational Sciences (NCATS), 2012)
The entries are a selection whose mix differs from that of the whole data set. Records with an inconclusive call do not appear. Calls of active or inactive are those of the source. The call rests on the fitted dose curve; in most records, active means well fitted activation curve with a large enough effect; inconclusive means small, poorly fitted or top-dose-only effect; inactive means no such curve, though single readings can be large or run the other way.

Test: A quantitative high throughput screen for small molecules that induce DNA re-replication in MCF 10a normal breast cells. Further: nearly all actives have a fitted effect of over 50% in size.
Details: MCF 10A DNA re-replication, Hoechst nuclear intensity, 48 h
From the text: H Molecular Libraries Probe Production Network [MLPCN]
NIH Chemical Genomics Center [NCGC]
Assay Provider: Melvin DePamphilis, NICHD, NIH
Eukaryotic cells normally restrict genome duplication to once per cell division. When this process is aberrant, DNA re-replication occurs when cells reinitiate DNA replication before the first round of replication is complete. DNA re-replication induces the DNA damage response, arrests cell proliferation, and triggers apoptosis. The cell cycle components cyclin A, Cdt-1, Cdc6 and geminin are critical regulators of this process and their misregulation results in DNA re-replication in normal and cancer cells. To identify compounds that induce re-replication in normal cells, an image-based assay was used to measure DNA content of nuclei, as detected by the fluorescent DNA binding dye, Hoechst. Cell nuclei were imaged by a fluorescence scanning plate imager and compounds that induce DNA re-replication were identified by the increase of nuclei with elevated fluorescence intensity
For screening, 250 cells in 5 uL/well were dispensed into black clear 1536-well plates (Aurora) using a solenoid-based dispenser. Following transfer of 23 nL compound or DMSO vehicle by a pin tool, the plates were incubated 48 hr at 37 C and 5% CO2. […]
Potency means the concentration at half of the fitted maximal effect.

SMILES | Potency
COc1c(O)cc2c(c1OC)-c1ccc(OC)c(=O)cc1C(NC(C)=O)CC2 (stereo unspecified) | active: 259 nM
